PubChem BioAssay AID1159591 | NIAID, 2016

Test: 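Effects of TLR pathway gene knock-down on R848-induced Tnf reporter in macrophages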
Cell system: mouse RAW264.7 G9 macrophage reporter clone (GFP-p65, Tnf promoter-mCherry)
Reagent: single siRNA against mouse genes
Time to read-out: cells assayed 48 to 72 hours after siRNA transfection; R848 for 16 hours before fixing
Conditions: R848 (TLR7/8 agonist) for 16 hours before fixation; dose not given
Measured: 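After R848 for 16 hours, nuclear Tnf promoter mCherry signal imaged minus background, scaled per plate by median and MAD into robust z against non-targeting controls, averaged across replicates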
Scale: mean Tnf reporter z-score: higher = stronger Tnf promoter reporter signal than controls
Active means: 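Absolute z above 1, 1.5, 2 or 2.5 scores 25 up to 100; no stated active threshold; in practice calls fall at roughly z ≤ -1.5 or z ≥ 1.5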
Meaning of the calls: active = reporter clearly up or down; inactive = little reporter change
Shown is an unselected part of 756 reagents tested. Over the whole deposit, 130 (17%) got an active call. 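Active calls include both lower and higher Tnf reporter signal.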 Entries without a mark were called inactive. Reagents against one gene are numbered here. Not stated in the record: the amount of reagent.

mean Tnf reporter z-score	target gene	siRNA no.
-2.65 (active)	Irf7 (interferon regulatory factor 7)	1
-0.866	Irf7 (interferon regulatory factor 7)	2
0.959	Irf7 (interferon regulatory factor 7)	3
-0.517	Irf7 (interferon regulatory factor 7)	4
-0.482	Irf7 (interferon regulatory factor 7)	5
-0.743	Irf7 (interferon regulatory factor 7)	6
-0.0861	Egr2 (early growth response 2)	1
-1.79 (active)	Egr2 (early growth response 2)	2
-2.14 (active)	Egr2 (early growth response 2)	3
-2.76 (active)	Egr2 (early growth response 2)	4
-3 (active)	Egr2 (early growth response 2)	5
-2.16 (active)	Egr2 (early growth response 2)	6
-1.84 (active)	Tank (TRAF family member-associated Nf-kappa B activator)	1
1.62 (active)	Tank (TRAF family member-associated Nf-kappa B activator)	2
0.219	Tank (TRAF family member-associated Nf-kappa B activator)	3
1.18	Tank (TRAF family member-associated Nf-kappa B activator)	4
0.505	Tank (TRAF family member-associated Nf-kappa B activator)	5
0.883	Tank (TRAF family member-associated Nf-kappa B activator)	6
0.174	Tollip (toll interacting protein)	1
-1.17	Tollip (toll interacting protein)	2
-2.09 (active)	Tollip (toll interacting protein)	3
0.333	Tollip (toll interacting protein)	4
0.52	Tollip (toll interacting protein)	5
-3.9 (active)	Tollip (toll interacting protein)	6
-0.2	Ripk3 (receptor-interacting serine-threonine kinase 3)	1
-0.0756	Ripk3 (receptor-interacting serine-threonine kinase 3)	2
0.775	Ripk3 (receptor-interacting serine-threonine kinase 3)	3
-0.615	Ripk3 (receptor-interacting serine-threonine kinase 3)	4
1.12	Ripk3 (receptor-interacting serine-threonine kinase 3)	5
-1.31	Ripk3 (receptor-interacting serine-threonine kinase 3)	6
-0.426	Tlr3 (toll-like receptor 3)	1
-1.93 (active)	Tlr3 (toll-like receptor 3)	2
-0.396	Tlr3 (toll-like receptor 3)	3
0.646	Tlr3 (toll-like receptor 3)	4
0.836	Tlr3 (toll-like receptor 3)	5
0.612	Tlr3 (toll-like receptor 3)	6
-0.7	Tbk1 (TANK-binding kinase 1)	1
0.281	Tbk1 (TANK-binding kinase 1)	2
-0.186	Tbk1 (TANK-binding kinase 1)	3
0.498	Tbk1 (TANK-binding kinase 1)	4
0.818	Tbk1 (TANK-binding kinase 1)	5
1.45	Tbk1 (TANK-binding kinase 1)	6
-2.48 (active)	Atf2 (activating transcription factor 2)	1
-1.83 (active)	Atf2 (activating transcription factor 2)	2
-0.0815	Atf2 (activating transcription factor 2)	3
0.388	Atf2 (activating transcription factor 2)	4
-1.81 (active)	Atf2 (activating transcription factor 2)	5
-0.577	Atf2 (activating transcription factor 2)	6
0.00498	Traf3 (TNF receptor-associated factor 3)	1
-1.1	Traf3 (TNF receptor-associated factor 3)	2
-0.844	Traf3 (TNF receptor-associated factor 3)	3
-0.274	Traf3 (TNF receptor-associated factor 3)	4
-1.37	Traf3 (TNF receptor-associated factor 3)	5
0.49	Traf3 (TNF receptor-associated factor 3)	6
0.0868	Nfkbia	1
-1.59 (active)	Nfkbia	2
0.837	Nfkbia	3
-0.176	Nfkbia	4
0.482	Nfkbia	5
-1.23	Nfkbia	6
0.418	Chuk (conserved helix-loop-helix ubiquitous kinase)	1
-2.04 (active)	Chuk (conserved helix-loop-helix ubiquitous kinase)	2
0.964	Chuk (conserved helix-loop-helix ubiquitous kinase)	3
-1.07	Chuk (conserved helix-loop-helix ubiquitous kinase)	4
-0.17	Chuk (conserved helix-loop-helix ubiquitous kinase)	5
0.321	Chuk (conserved helix-loop-helix ubiquitous kinase)	6
0.0179	Map3k14 (mitogen-activated protein kinase kinase kinase 14)	1
1.26	Map3k14 (mitogen-activated protein kinase kinase kinase 14)	2
-0.0756	Map3k14 (mitogen-activated protein kinase kinase kinase 14)	3
-0.0218	Map3k14 (mitogen-activated protein kinase kinase kinase 14)	4
-1.06	Map3k14 (mitogen-activated protein kinase kinase kinase 14)	5
-3.16 (active)	Map3k14 (mitogen-activated protein kinase kinase kinase 14)	6
-0.018	Pik3cd	1
-1.5 (active)	Pik3cd	2
-0.826	Pik3cd	3
-1.4	Pik3cd	4
-0.0342	Pik3cd	5
-0.808	Pik3cd	6

Already shown: entries from further up.
mean Tnf reporter z-score	target gene	siRNA no.
0.281	Tbk1 (TANK-binding kinase 1)	2
-0.186	Tbk1 (TANK-binding kinase 1)	3
0.498	Tbk1 (TANK-binding kinase 1)	4
0.818	Tbk1 (TANK-binding kinase 1)	5
1.45	Tbk1 (TANK-binding kinase 1)	6
-2.48 (active)	Atf2 (activating transcription factor 2)	1
-1.83 (active)	Atf2 (activating transcription factor 2)	2
-0.0815	Atf2 (activating transcription factor 2)	3
0.388	Atf2 (activating transcription factor 2)	4
-1.81 (active)	Atf2 (activating transcription factor 2)	5
-0.577	Atf2 (activating transcription factor 2)	6
0.00498	Traf3 (TNF receptor-associated factor 3)	1
-1.1	Traf3 (TNF receptor-associated factor 3)	2
